PubChem BioAssay AID1259308 – NCATS, 2017

Purpose: 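Genes whose loss raises luciferase production in HEK293 cells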 (primary screen)
System: human HEK293 embryonic kidney cells stably expressing firefly luciferase (HEK-CMV-Luc2-Hygro)
Reagent: single siRNA against human genes, 0.8 pmol siRNA per well
Duration: 72 h
Detection: 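Luciferase light (ONE-Glo) measured on one replicate plate set and viability (CellTiter-Glo) on the other, scaled to a negative control siRNA, with robust z-scores and luciferase per cell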
Reading the numbers: total luciferase, z-score and total luciferase, % of control: higher = more reporter protein produced; luciferase per cell, z-score: higher = more reporter output per viable cell; viable cells, % of control: higher = more viable cells
Call rule: 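An siRNA counts as active if its total luciferase robust z-score exceeds 3; genes with two or more such siRNAs out of three were retested with fresh siRNAs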
Meaning of the calls: active = raised luciferase; inactive = no rise
In all, the deposit lists about 59,000 reagents; this is an unselected part. About 1,510 of all reagents (2.6%) count as active. 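Calls use total luciferase alone and ignore viability, so some active siRNAs may act by altering cell number.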 Unmarked entries are inactive. Reagents against one gene are numbered here.

The opening 2 records, to show the layout:
gene symbol,reagent,"total luciferase, z-score","total luciferase, % of control","luciferase per cell, z-score","viable cells, % of control"
ARL17B,1,-0.823,65.5,0.275,68.1
ARL17B,2,-0.559,70.8,-0.971,102

The listing, repeating the preview:
gene symbol,reagent,"total luciferase, z-score","total luciferase, % of control","luciferase per cell, z-score","viable cells, % of control"
ARL17B,1,-0.823,65.5,0.275,68.1
ARL17B,2,-0.559,70.8,-0.971,102
ARL17B,3,0.789,97.6,0.368,99
RPL26P32,1,-3.15,19.3,-2.94,46.7
RPL26P32,2,-1.69,48.4,-1.21,74.2
RPL26P32,3,-2.75,27.1,-2.81,63.5
NR3C2,1,-0.78,66.4,-1.54,111
NR3C2,2,-0.549,71,-0.508,90.7
NR3C2,3,-0.572,70.5,-1.22,109
CCDC172,1,0.467,91.2,0.678,85.2
CCDC172,2,-0.609,69.8,0.0836,76.3
CCDC172,3,1.94,121,1.01,103
C1orf220,1,0.0979,83.8,1.34,65.8
C1orf220,2,-0.158,78.7,-0.0942,90.2
C1orf220,3,0.204,85.9,0.323,88.2
CDYL2,1,0.162,85.1,-0.4,106
CDYL2,2,-0.167,78.6,-0.0597,89.2
CDYL2,3,0.465,91.1,0.373,92.3
LHX3,1,-1.33,55.4,-1.26,86.3
LHX3,2,3.05 (active),143,1.97,94.8
LHX3,3,-0.062,80.7,-0.0953,92.4
PITPNB,1,-0.399,74,-0.74,100
PITPNB,2,-0.855,64.9,-0.0374,73.2
PITPNB,3,-0.757,66.8,-1.08,99.3
BET1L,1,-0.694,68.1,0.388,68.7
BET1L,2,1.31,108,1.46,82.2
BET1L,3,-0.58,70.4,-0.183,82.5
SEMA4D,1,-0.217,77.6,-0.371,95.6
SEMA4D,2,-0.0572,80.7,-0.352,99
SEMA4D,3,-0.25,76.9,-0.493,97.9
SEMA4D,4,-1.29,56.2,-0.66,74.8
SEMA4D,5,1.43,110,2.07,71.5
SEMA4D,6,-0.506,71.8,-1.4,116
SLC45A1,1,0.63,94.4,0.128,102
SLC45A1,2,-0.0751,80.4,-0.352,98.6
SLC45A1,3,-0.926,63.5,-0.0643,72.1
QRFP,1,-1.17,58.6,-0.669,78.1
QRFP,2,-0.33,75.3,0.00357,84.1
QRFP,3,0.187,85.6,0.496,83.9
